# Values from PubChem BioAssay AID652243 (Drosophila RNAi Screening Center, 2013)
# Purpose: 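Fly genes required for human androgen receptor driven transcription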 (primary screen)
# System: Drosophila S2R+ cells
# Reagents: long dsRNA against Drosophila genes
# Duration: 72 h (48 h, then 24 h hormone)
# Conditions: synthetic androgen R1881 at 10 nM for 24 h
# Detection: 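Firefly light from an androgen-responsive reporter and Renilla control light per well, raw and unnormalised, for each of two replicates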
# Reading the numbers: firefly reporter light: higher = more light from androgen-responsive reporter; Renilla control light: higher = more constitutive control signal (cell number, transfection)
# Hit rule: 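Hit when the log firefly-to-Renilla ratio dropped or increased by a fixed fold versus the mean of GFP or LacZ controls across duplicate plates; lowering cut given as 1.5 and as 3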
# Meaning of the calls: active = hit: reporter lowered or raised; inactive = no hit
# The deposit covers about 24,000 reagents; shown is a random part of those with a known target gene and a result. Over the whole deposit, 246 (1%) got an active call. 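Plates not normalised; calls are printed but the firefly/Renilla ratio behind them is not deposited; fold cut for lowering reported inconsistently.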 Raw values are not corrected between plates. Entries without a mark were called inactive. A plus sign joins genes that one reagent is predicted to hit. No sequences are given here. Not given: the amount of reagent.
"firefly reporter light, replicate 1","firefly reporter light, replicate 2","Renilla control light, replicate 1","Renilla control light, replicate 2",gene,DRSC id
1.63e5,1.48e5,9.05e5,1.09e6,CG12517,DRSC02173
1.78e5,2.07e5,2.40e6,3.03e6,SelR,DRSC16071
6.15e5,4.01e5,3.41e6,3.09e6,Cp7Fc,DRSC18035
2.33e5,3.09e5,6.26e5,6.27e5,Cp7Fc,DRSC27432
1.77e5,1.85e5,2.35e6,1.79e6,CG13838,DRSC14688
6.98e5,5.91e5,1.74e6,1.37e6,CG13838,DRSC29055
3.86e5,4.08e5,3.21e6,2.99e6,sing + Axs,DRSC19333
1.55e5,1.90e5,1.89e6,2.19e6,CG31300,DRSC14657
6.66e5,6.13e5,8.43e5,8.02e5,CG31300,DRSC25696
2.68e5,1.86e5,2.28e6,2.39e6,CG33969,DRSC11777
75708,1.35e5,1.25e6,1.36e6,vib,DRSC17094
9.98e5,9.25e5,2.03e6,1.43e6,Cadps,DRSC22200
5.55e5,5.23e5,1.27e6,1.29e6,Cadps,DRSC29264
1.63e5,2.20e5,1.45e6,1.96e6,CG9815,DRSC04567
5.25e5,7.07e5,9.55e5,1.17e6,CG9815,DRSC25175
3.11e5,2.86e5,2.84e6,3.02e6,Lamtor1,DRSC10183
2.50e5,3.02e5,2.74e6,2.75e6,CG17199,DRSC15192
77969,56853,9.42e5,6.76e5,CG14015,DRSC02346
2.66e5,2.69e5,6.78e5,7.24e5,CG14015,DRSC26031
91495,61513,9.56e5,7.19e5,kappaTry,DRSC06146
8.16e5,6.01e5,1.47e6,1.24e6,CG3589,DRSC04392
7.45e5,4.02e5,8.93e5,4.29e5,CG3589,DRSC26755
1.03e6,1.11e6,2.33e6,1.70e6,CG7420,DRSC00704
9.88e5,8.17e5,2.18e6,1.92e6,Nup75,DRSC06947
4.36e5,3.00e5,1.63e6,1.52e6,Nup75,DRSC28056
1.19e6,5.28e5,3.01e6,1.79e6,CG6443,DRSC02958
3.93e5,2.95e5,9.74e5,1.11e6,CG6443,DRSC30036
60040,59753,4.25e5,4.24e5,CG5969,DRSC11789
4.93e5,3.64e5,8.02e5,7.03e5,CG5969,DRSC29030
1.11e6,8.48e5,1.94e6,9.12e5,Zyx,DRSC17186
1.01e5,87883,7.48e5,7.80e5,CG6398,DRSC19992
7.48e5,7.93e5,1.23e6,1.53e6,CG10859,DRSC02110
1.11e5,1.04e5,1.45e6,1.45e6,Hmgs,DRSC06866
2.89e5,2.90e5,9.68e5,8.53e5,Hmgs,DRSC28746
1.04e5,92999,6.17e5,5.67e5,CG12321,DRSC14499
5.20e5,4.38e5,1.58e6,1.17e6,CG12321,DRSC28965
1.37e6,9.78e5,1.87e6,1.96e6,Sps1,DRSC07549
8.17e5,8.04e5,3.79e6,1.56e6,CG11454,DRSC00310
7.94e5,6.95e5,1.02e6,8.17e5,CG11454,DRSC25138
86940,79878,6.55e5,5.87e5,Hr96,DRSC16707
2.27e5,2.13e5,1.77e6,1.61e6,Obp58d,DRSC04162
8.56e5,4.11e5,1.99e6,1.25e6,CG3529,DRSC10369
8.17e5,5.88e5,1.14e6,1.23e6,CG3529,DRSC25300
57476,70067,1.02e6,1.23e6,CG16789,DRSC15155
7.14e5,6.19e5,1.58e6,1.68e6,lncRNA:CR34024,DRSC38811
82500,1.33e5,1.09e5,1.55e5,CG31115,DRSC13692
3.28e5,2.99e5,6.95e5,6.64e5,CG31115,DRSC26097
1.39e5,1.50e5,1.49e6,1.62e6,ppk13,DRSC02382
5.45e5,8.75e5,1.41e6,2.07e6,MtnC,DRSC22879
3.58e5,3.31e5,2.08e6,2.36e6,Optix,DRSC05078
9.89e5,7.19e5,1.51e6,1.55e6,Optix,DRSC07484
4.16e5,5.16e5,1.54e6,1.65e6,Optix,DRSC21963
4.70e5,3.55e5,1.26e6,1.46e6,Optix,DRSC29089
3.00e5,2.42e5,1.58e6,1.27e6,eIF3e,DRSC11199
1.34e6,1.33e6,2.51e6,2.68e6,Vmat + CG13330,DRSC06365
4.34e5,3.81e5,1.66e6,1.49e6,Vmat + CG13330,DRSC28600
3.19e5,2.84e5,2.88e6,2.97e6,sit,DRSC15760
1.22e6,9.51e5,1.13e6,1.14e6,sit,DRSC25250

5 neighbouring records from above:
"firefly reporter light, replicate 1","firefly reporter light, replicate 2","Renilla control light, replicate 1","Renilla control light, replicate 2",gene,DRSC id
1.19e6,5.28e5,3.01e6,1.79e6,CG6443,DRSC02958
3.93e5,2.95e5,9.74e5,1.11e6,CG6443,DRSC30036
60040,59753,4.25e5,4.24e5,CG5969,DRSC11789
4.93e5,3.64e5,8.02e5,7.03e5,CG5969,DRSC29030
1.11e6,8.48e5,1.94e6,9.12e5,Zyx,DRSC17186
